These are yes or no findings as the source states them, for the method shown. Binding seen in cells or lysates may run through a third protein. A yes stands for co-enrichment or nearness to the bait. Other partners may have been found. No binding means not detected with the bait.
T1: p140Cap (mouse (endogenous in synaptosomes of the telencephalon)) (UniProt Q9QWI6)
T1 sequence: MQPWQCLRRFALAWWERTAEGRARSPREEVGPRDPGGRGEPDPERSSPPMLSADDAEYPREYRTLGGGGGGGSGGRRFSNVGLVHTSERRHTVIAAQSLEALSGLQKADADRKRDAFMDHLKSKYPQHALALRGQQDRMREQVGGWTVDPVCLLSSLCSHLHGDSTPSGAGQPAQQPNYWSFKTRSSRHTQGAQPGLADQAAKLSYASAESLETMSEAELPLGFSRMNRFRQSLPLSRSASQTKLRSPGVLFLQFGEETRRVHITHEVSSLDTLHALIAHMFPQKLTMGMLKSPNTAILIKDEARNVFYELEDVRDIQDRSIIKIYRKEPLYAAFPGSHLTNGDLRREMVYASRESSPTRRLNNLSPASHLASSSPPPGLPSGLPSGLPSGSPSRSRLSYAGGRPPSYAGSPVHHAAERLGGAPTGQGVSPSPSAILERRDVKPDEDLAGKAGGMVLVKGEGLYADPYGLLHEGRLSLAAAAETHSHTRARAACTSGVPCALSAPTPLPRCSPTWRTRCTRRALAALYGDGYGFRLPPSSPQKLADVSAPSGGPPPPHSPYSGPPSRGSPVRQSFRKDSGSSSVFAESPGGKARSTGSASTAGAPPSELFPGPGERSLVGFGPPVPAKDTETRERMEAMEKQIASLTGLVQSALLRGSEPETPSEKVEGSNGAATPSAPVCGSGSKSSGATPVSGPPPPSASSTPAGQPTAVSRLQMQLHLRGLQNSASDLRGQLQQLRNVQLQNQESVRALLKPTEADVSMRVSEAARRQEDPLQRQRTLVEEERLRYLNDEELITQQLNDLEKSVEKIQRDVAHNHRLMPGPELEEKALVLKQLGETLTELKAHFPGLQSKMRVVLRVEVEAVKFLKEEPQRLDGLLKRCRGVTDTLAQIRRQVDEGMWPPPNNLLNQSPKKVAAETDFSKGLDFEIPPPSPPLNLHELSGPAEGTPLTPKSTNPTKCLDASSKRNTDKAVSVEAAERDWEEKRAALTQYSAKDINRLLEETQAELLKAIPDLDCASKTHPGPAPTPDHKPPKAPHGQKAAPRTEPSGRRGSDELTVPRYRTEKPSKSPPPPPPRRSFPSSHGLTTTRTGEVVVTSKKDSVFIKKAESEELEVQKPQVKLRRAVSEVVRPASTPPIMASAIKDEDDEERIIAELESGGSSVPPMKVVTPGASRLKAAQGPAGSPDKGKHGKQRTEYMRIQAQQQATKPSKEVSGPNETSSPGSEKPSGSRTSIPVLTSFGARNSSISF

Sequences of proteins named here, by UniProt entry; tags and fusion partners are left off. A change or cut given only in a name is not applied to a line headed by its entry. A line that says so, or that is headed by a name, gives the form on record, which may keep a tag or linker. Residues count along the entry.
UniProt Q8CC27: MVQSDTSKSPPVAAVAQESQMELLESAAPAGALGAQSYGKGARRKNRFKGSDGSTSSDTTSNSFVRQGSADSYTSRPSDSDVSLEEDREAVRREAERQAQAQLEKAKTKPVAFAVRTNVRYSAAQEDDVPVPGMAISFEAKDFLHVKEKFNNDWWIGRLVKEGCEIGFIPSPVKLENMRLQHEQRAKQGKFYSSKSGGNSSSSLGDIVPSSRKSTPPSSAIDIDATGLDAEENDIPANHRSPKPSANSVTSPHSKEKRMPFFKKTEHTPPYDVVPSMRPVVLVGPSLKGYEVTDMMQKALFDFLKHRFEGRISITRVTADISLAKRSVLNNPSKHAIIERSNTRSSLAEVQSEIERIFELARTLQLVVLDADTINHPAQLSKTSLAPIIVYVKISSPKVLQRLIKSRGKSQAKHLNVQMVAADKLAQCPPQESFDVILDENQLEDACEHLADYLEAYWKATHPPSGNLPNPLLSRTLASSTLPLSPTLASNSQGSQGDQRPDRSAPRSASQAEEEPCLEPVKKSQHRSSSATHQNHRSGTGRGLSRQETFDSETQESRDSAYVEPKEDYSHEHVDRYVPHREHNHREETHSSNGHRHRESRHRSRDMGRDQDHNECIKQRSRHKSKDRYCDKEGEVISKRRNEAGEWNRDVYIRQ
Citron-N (P49025-3, form named): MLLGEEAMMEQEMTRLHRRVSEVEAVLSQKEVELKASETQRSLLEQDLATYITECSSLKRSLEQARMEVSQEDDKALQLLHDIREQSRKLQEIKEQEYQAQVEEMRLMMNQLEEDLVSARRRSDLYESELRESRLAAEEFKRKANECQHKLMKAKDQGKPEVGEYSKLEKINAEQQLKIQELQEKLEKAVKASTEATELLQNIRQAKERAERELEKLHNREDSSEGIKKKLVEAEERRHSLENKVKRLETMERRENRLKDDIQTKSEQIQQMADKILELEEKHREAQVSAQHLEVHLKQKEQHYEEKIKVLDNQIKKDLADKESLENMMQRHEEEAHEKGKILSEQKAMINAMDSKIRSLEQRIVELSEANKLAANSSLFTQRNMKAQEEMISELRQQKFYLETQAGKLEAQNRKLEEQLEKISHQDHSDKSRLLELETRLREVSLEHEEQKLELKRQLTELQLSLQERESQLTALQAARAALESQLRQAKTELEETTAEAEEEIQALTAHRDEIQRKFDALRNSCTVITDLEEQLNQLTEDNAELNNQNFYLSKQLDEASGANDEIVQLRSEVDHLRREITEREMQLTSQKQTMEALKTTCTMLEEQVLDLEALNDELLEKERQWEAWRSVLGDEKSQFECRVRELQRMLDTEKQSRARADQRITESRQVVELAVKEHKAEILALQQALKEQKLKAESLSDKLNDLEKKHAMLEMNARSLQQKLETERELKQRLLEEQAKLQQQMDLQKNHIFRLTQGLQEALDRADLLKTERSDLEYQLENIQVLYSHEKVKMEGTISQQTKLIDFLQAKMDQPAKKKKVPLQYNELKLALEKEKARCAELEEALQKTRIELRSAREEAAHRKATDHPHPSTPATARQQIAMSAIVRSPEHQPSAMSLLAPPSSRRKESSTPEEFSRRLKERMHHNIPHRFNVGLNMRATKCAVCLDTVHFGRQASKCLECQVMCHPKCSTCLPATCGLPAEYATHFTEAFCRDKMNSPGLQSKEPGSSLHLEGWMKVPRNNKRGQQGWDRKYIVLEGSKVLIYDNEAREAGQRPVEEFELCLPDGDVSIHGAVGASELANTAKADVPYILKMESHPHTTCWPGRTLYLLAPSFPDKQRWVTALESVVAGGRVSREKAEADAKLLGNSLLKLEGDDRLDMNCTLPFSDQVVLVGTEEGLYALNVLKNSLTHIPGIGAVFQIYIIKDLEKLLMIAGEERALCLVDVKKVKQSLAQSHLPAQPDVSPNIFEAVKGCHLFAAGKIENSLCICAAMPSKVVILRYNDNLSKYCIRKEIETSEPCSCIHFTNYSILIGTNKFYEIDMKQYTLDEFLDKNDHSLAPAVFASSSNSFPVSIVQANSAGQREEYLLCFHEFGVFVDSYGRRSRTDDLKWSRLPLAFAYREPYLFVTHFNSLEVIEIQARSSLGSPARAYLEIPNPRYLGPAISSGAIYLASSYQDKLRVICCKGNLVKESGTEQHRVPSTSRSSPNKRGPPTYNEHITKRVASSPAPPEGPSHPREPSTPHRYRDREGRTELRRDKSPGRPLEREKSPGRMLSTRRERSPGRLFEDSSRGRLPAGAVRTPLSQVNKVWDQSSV
UniProt Q9Z2W9, residues 23-888: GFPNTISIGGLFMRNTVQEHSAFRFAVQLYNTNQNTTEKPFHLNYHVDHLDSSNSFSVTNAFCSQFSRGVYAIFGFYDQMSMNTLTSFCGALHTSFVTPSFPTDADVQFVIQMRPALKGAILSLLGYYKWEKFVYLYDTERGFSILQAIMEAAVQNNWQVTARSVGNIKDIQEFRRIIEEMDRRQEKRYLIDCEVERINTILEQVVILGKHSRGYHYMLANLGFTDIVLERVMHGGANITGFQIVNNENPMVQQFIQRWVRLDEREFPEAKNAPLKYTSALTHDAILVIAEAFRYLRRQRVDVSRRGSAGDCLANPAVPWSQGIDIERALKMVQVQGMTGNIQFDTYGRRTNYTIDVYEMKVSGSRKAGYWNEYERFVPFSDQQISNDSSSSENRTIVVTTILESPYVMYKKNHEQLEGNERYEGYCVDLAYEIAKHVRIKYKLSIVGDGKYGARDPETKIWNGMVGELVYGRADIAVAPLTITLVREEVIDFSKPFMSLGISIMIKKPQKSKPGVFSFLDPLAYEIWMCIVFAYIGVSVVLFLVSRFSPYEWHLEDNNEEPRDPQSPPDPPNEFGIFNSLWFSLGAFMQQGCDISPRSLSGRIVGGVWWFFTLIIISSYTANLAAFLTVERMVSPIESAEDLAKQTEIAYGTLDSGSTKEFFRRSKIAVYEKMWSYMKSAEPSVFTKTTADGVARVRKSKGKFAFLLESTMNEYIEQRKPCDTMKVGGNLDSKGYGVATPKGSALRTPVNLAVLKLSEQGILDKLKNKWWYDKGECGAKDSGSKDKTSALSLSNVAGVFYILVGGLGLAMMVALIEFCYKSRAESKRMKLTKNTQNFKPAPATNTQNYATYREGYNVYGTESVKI
UniProt Q3TDK6: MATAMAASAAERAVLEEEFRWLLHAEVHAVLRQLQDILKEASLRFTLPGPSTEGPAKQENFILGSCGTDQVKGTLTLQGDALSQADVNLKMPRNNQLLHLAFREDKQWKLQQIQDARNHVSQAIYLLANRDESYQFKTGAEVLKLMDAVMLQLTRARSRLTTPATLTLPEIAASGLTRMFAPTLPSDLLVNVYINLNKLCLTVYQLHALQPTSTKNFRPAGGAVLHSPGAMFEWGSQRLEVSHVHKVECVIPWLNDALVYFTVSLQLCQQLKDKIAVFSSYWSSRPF
UniProt Q8BV79: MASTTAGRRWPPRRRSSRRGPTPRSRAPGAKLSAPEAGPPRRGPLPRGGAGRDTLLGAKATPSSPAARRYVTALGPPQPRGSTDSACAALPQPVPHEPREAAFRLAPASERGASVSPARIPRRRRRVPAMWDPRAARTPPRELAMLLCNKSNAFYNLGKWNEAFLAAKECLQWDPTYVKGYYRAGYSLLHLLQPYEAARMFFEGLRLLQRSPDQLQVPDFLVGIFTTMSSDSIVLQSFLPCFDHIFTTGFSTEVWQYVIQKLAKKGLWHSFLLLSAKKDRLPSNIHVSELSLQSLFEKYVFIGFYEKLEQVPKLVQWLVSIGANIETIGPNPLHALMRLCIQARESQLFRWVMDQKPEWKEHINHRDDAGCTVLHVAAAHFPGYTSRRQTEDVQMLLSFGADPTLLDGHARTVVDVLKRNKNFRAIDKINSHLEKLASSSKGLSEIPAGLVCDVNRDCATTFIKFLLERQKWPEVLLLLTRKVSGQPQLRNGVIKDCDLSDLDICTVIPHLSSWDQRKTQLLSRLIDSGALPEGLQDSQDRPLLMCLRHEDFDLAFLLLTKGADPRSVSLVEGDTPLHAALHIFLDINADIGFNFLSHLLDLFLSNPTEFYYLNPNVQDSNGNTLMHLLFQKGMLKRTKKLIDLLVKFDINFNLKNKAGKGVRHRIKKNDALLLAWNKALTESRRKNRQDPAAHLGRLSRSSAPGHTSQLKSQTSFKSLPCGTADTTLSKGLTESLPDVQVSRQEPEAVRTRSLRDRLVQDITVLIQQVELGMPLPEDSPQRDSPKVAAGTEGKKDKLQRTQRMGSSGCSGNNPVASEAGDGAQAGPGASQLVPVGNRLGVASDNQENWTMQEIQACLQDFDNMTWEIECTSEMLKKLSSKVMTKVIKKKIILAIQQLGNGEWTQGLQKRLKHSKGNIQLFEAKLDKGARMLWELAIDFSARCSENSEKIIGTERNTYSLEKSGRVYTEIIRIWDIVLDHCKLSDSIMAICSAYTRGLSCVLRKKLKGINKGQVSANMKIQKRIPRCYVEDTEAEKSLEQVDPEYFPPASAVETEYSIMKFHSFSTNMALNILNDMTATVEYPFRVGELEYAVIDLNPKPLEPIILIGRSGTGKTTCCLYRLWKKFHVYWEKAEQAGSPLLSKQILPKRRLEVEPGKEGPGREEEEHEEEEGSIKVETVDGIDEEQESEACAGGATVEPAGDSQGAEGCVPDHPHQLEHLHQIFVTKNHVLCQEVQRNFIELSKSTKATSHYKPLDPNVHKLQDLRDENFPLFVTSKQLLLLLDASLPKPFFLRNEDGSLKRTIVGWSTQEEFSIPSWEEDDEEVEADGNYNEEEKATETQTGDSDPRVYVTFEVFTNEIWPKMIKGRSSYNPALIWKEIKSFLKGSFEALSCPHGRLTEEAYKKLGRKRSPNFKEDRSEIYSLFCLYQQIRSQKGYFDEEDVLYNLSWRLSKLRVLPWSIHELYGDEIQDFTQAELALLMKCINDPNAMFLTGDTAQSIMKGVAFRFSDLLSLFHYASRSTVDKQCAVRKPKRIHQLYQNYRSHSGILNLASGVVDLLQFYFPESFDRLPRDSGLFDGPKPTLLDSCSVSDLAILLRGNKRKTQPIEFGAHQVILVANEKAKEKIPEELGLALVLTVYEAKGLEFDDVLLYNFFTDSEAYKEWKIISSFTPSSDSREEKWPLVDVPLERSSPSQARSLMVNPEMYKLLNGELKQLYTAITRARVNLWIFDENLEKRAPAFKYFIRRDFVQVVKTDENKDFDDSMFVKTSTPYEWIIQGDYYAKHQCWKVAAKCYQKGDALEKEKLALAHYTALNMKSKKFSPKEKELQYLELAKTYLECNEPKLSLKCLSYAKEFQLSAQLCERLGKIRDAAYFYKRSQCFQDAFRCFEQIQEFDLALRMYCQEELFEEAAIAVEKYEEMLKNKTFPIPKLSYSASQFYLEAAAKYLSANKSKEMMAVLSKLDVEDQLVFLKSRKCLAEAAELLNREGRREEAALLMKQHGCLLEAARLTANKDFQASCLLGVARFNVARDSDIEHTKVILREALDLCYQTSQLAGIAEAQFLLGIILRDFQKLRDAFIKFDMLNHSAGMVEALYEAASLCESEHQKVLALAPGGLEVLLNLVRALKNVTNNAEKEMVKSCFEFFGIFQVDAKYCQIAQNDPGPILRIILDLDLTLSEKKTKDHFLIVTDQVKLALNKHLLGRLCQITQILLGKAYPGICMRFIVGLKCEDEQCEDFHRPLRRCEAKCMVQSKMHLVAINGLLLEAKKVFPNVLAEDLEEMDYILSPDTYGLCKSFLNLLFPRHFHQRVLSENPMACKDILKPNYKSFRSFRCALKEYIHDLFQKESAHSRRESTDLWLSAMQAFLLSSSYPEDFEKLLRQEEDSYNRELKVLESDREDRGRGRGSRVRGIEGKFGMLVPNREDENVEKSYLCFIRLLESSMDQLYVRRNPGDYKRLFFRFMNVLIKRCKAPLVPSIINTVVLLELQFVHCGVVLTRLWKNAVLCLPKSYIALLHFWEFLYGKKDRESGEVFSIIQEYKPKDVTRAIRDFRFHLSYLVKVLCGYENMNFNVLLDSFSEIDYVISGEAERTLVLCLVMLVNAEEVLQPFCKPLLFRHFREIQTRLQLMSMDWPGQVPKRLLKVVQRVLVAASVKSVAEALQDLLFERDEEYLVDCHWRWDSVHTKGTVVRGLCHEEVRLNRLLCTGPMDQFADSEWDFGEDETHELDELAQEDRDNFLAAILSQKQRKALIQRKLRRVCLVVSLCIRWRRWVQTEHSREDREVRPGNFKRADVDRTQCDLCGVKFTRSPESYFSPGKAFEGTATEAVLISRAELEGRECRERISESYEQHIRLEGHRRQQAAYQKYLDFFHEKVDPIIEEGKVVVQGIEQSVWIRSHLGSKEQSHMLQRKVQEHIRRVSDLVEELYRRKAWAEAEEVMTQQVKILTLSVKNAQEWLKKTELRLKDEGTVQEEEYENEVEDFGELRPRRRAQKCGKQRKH

B1: Shank2 (protein, UniProt Q80Z38 1-1476)
chain: MKSLLNAFTKKEVPFREAPAYSNRRRRPPNTLAAPRVLLRSNSDNNLNAGAPEWAVCSAATSHRSLSPQLLQQTPSKPDGATKSLGSYTPGPRSRSPSLNRLGGTAEDGKRTQPHWHVGSPFTPGANKDSLSTFEYPGPRRKLYSAVPGRLFVAVKPYQPQVDGEIPLHRGDRVKVLSIGEGGFWEGSARGHIGWFPAECVEEVQCKPRDSQAETRADRSKKLFRHYTVGSYDSFDAASDCIIEDKTVVLQKKDNEGFGFVLRGAKADTPIEEFTPTPAFPALQYLESVDEGGVAWQAGLRTGDFLIEVNNENVVKVGHRQVVNMIRQGGNHLILKVVTVTRNLDPDDTARKKAPPPPKRAPTTALTLRSKSMTAELEELGLSLVDKASVRKKKDKPEEIVPASKPSRTAENVAIESRVATIKQRPTSRCFPAASDVNSVYERQGIAVMTPTVPGSPKGPFLGLPRGTMRRQKSIDSRIFLSGITEEERQFLAPPMLKFTRSLSMPDTSEDIPPPPQSVPPSPPPPSPTTYNCPRSPTPRVYGTIKPAFNQNPVVAKVPPATRSDTVATMMREKGMFYRRELDRFSLDSEDVYSRSPAPQAAFRTKRGQMPENPYSEVGKIASKAVYVPAKPARRKGVLVKQSNVEDSPEKTCSIPIPTIIVKEPSTSSSGKSSQGSSMEIDPQATEPGQLRPDDSLTVSSPFAAAIAGAVRDREKRLEARRNSPAFLSTDLGDEDVGLGPPAPRMQASKFPEEGGFGDEDETEQPLLPTPGAAPRELENHFLGGGEAGAQGEAGGPLSSTSKAKGPESGPAAPLKSSSPAGPENYVHPLTGRLLDPSSPLALALSARDRAMQESQQGHKGEAPKADLNKPLYIDTKMRPSVESGFPPVTRQNTRGPLRRQETENKYETDLGKDRRADDKKNMLINIVDTAQQKSAGLLMVHTVDVPMAGPPLEEEEDREDGDTKPDHSPSTVPEGVPKTEGALQISAAPEPAVAPGRTIVAAGSVEEAVILPFRIPPPPLASVDLDEDFLFTEPLPPPLEFANSFDIPDDRAASVPALADLVKQKKNDTSQPPTLNSSQPANSTDSKKPAGISNCLPSSFLPPPESFDAVTDSGIEEVDSRSSSDHHLETTSTISTVSSISTLSSEGGESMDTCTVYADGQAFVVDKPPVPPKPKMKPIVHKSNALYQDTLPEEDTDGFVIPPPAPPPPPGSAQAGVAKVIQPRTSKLWGDVPEVKSPILSGPKANVISELNSILQQMNRGKSVKPGEGLELPVGAKSANLAPRSPEVMSTVSGTRSTTVTFTVRPGTSQPITLQSRPPDYESRTSGPRRAPSPVVSPTELSKEILPTPPPPSATAASPSPTLSDVFSLPSQSPAGDLFGLNPAGRSRSPSPSILQQPISNKPFTTKPVHLWTKPDVADWLESLNLGEHKETFMDNEIDGSHLPNLQKEDLIDLGVTRVGHRMNIERALKQLLDR
B2: Homer1 (protein, UniProt Q9Z2Y3 1-366)
chain: MGEQPIFSTRAHVFQIDPNTKKNWVPTSKHAVTVSYFYDSTRNVYRIISLDGSKAIINSTITPNMTFTKTSQKFGQWADSRANTVYGLGFSSEHHLSKFAEKFQEFKEAARLAKEKSQEKMELTSTPSQESAGGDLQSPLTPESINGTDDERTPDVTQNSEPRAEPTQNALPFPHSAGDRTQALSHASSAISKHWEAELATLKGNNAKLTAALLESTANVKQWKQQLAAYQEEAERLHKRVTELECVSSQANAVHSHKTELNQTVQELEETLKVKEEEIERLKQEIDNARELQEQRDSLTQKLQEVEIRNKDLEGQLSDLEQRLEKSQNEQEAFRSNLKTLLEILDGKIFELTELRDNLAKLLECS
B3: Cadm1/Syncam (protein, UniProt Q8R5M8 48-456)
chain: QNLFTKDVTVIEGEVATISCQVNKSDDSVIQLLNPNRQTIYFRDFRPLKDSRFQLLNFSSSELKVSLTNVSISDEGRYFCQLYTDPPQESYTTITVLVPPRNLMIDIQKDTAVEGEEIEVNCTAMASKPATTIRWFKGNKELKGKSEVEEWSDMYTVTSQLMLKVHKEDDGVPVICQVEHPAVTGNLQTQRYLEVQYKPQVHIQMTYPLQGLTREGDAFELTCEAIGKPQPVMVTWVRVDDEMPQHAVLSGPNLFINNLNKTDNGTYRCEASNIVGKAHSDYMLYVYDPPTTIPPPTTTTTTTTTTTTTILTIITDTTATTEPAVHDSRAGEEGTIGAVDHAVIGGVVAVVVFAMLCLLIILGRYFARHKGTYFTHEAKGADDAADADTAIINAEGGQNNSEEKKEYFI
B4: FRMD4A (protein, UniProt Q8BIE6 1-1020)
chain: MTEGRRCQVHLLDDRKLELLVQPKLLAKELLDLVASHFNLKEKEYFGIAFTDETGHLNWLQLDRRVLEHDFPKKSGPVVLYFCVRFYIESISYLKDNATIELFFLNAKSCIYKELIDVDSEVVFELASYILQEAKGDFSSNEVVRSDLKKLPALPTQALKEHPSLAYCEDRVIEYYKKLNGQTRGQAIVNYMSIVESLPTYGVHYYAVKDKQGIPWWLGLSYKGIFQYDYHDKVKPRKIFQWRQLENLYFREKKFSVEVHDPRRASVTRRTFGHSGIAVHTWYACPALIKSIWAMAISQHQFYLDRKQSKSKIHAARSLSEIAIDLTETGTLKTSKLANMGSKGKIISGSSGSLLSSGSQESDSSQSAKKDMLAALKSRQEALEETLRQRLEELKRLCLREAELTGKLPVEYPLDPGEEPPIVRRRIGTAFKLDEQKILPKGEEAELERLEREFAIQSQITEAARRLASDPNVSKKLKKQRKTSYLNALKKLQEIENAINENRIKSGKKPTQRASLVIDDGNIASEDSSLSDALVLEDEDSQVTSTISPLQSPHKGLPPRPPSSHNRPPPPQSLEGLRQLHYHRTDYDKSPLKPKMWSESSLDEPYEKVKKRSSHGHSSSHKRFPSTGSCTEAGVSSSLQNSPIRSLPHWNSQSSMPSTPDLRVRSPHYVHSTRSVDISPTRLHSLALHFRHRSSSLESQGKLLGSENDTGSPDFYTPRTRSSNGSDPMDDCSSCTSHSSSEHYYPAQMNANYSTLAEDSPSKARQRQRQRQRAAGALGSASSGSMPNLAARSGAASTGGGVYLHSQSQPSSQYRIKEYPLYIEGSATPVVVRSLESDQEGHYSVKAQFKTSNSYTAGGLFKESWRGGGDEGDAGRLTPSRSQILRTPSLGRDGAHDKGSGRAAVSDELRQWYQRSTASHKEHSRLSHTSSTSSDSGSQYSTSSQSTFVAHSRVTRMPQMCKATSAALPQSQRSSTPSSEIGATPPSSPHHILTWQTGEATENSPIMDGSESPTHQSTDE

molecular target: T1, p140Cap (mouse (endogenous in synaptosomes of the telencephalon)); assay: affinity purification with mass spectrometry; p140Cap immunoprecipitated with Mab 2A8 cross-linked to protein G Dynabeads from 6 mg crude synaptosomal extract of WT mice (p140Cap KO as negative control), 2 h at 4°C, lysis buffer 150 mM NaCl, 50 mM Tris pH 7, 1% NP-40; label-free nanoLC-MS/MS, iBAQ, FDR 1% and at least 4-fold enrichment over KO

Q: With CACNA1A (from UniProt P97445 1-2368) as the molecule, how does the binding read?
A: The binding was “binds”.

Q: For CACNA1C (from UniProt Q01815 1-2139), which binding is on record?
A: The binding was “no binding”.

Q: With CACNA1H (from UniProt O88427 1-2365) as the molecule, how does the binding read?
A: Its binding is “no binding”.

Q: With CACNA2D1 as the molecule, how does the binding read?
A: The binding was “binds”.

Q: With CACNA2D2 as the molecule, how does the binding read?
A: Its binding is “binds”.

Q: CACNB2 (from UniProt Q8CC27 1-655) was tested. Which binding did it give?
A: The binding was “no binding”.

Q: How did the binding turn out when “CNKSR2 (CNK2) (from UniProt Q80YA9 1-1032)” was run?
A: The binding was “binds”.

Q: “CTNNB1 (β-catenin) (from UniProt Q02248 1-781)” was tested. Which binding did it give?
A: The binding was “binds”.

Q: For “Camk2a (from UniProt P11798 1-478) (enzyme)”, which binding is on record?
A: Its binding is “binds”.

Q: For Citron-N (from UniProt P49025-3 1-1597), which binding is on record?
A: The binding was “binds”.

Q: With “Gria3 (from UniProt Q9Z2W9 23-888) (receptor)” as the molecule, how does the binding read?
A: Its binding is “binds”.

Q: “Grin2a (from UniProt P35436 23-1464) (receptor)” was tested. Which binding did it give?
A: Its binding is “binds”.

Q: With “Grin2b (from UniProt Q01097 27-1482) (receptor)” as the molecule, how does the binding read?
A: The binding was “binds”.

Q: ROGDI (from UniProt Q3TDK6 1-287) was tested. Which binding did it give?
A: Its binding is “binds”.

Q: For Shank3 (from UniProt Q4ACU6 1-1730), which binding is on record?
A: Its binding is “binds”.

Q: Which binding does the source give for TRANK1 (from UniProt Q8BV79 1-2999) here?
A: Its binding is “binds”.

Q: For B1, which binding is on record?
A: The binding was “binds”.

Q: For B2, which binding is on record?
A: The binding was “binds”.

Q: With B3 as the molecule, how does the binding read?
A: The binding was “binds”.

Q: How did the binding turn out when B4 was run?
A: Its binding is “binds”.
